Sequences of proteins named here, by UniProt entry; tags and fusion partners are left off. A change or cut given only in a name is not applied to a line headed by its entry. Residues count along the entry.
UniProt Q9UKI8: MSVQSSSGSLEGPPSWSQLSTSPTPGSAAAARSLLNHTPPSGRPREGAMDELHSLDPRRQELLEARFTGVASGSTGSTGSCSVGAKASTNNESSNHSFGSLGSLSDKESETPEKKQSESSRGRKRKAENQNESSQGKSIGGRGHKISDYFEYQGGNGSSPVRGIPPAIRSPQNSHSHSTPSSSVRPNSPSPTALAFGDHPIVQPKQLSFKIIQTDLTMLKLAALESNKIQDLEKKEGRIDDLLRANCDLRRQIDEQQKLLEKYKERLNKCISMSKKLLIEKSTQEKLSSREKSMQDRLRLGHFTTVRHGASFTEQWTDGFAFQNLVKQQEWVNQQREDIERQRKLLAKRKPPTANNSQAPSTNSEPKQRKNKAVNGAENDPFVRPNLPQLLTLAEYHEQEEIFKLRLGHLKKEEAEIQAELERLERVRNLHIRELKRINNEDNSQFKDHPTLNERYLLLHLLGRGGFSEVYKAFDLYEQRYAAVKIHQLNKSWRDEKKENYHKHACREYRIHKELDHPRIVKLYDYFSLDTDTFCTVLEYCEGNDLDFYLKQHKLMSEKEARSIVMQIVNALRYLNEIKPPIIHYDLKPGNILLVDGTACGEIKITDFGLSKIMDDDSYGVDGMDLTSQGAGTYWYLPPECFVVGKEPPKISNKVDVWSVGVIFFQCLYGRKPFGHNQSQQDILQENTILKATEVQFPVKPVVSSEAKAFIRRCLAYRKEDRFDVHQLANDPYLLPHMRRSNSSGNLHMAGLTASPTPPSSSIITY
SFB-TLK1 1–240: residues 1-240 of Q9UKI8
SFB-TLK1 133–208: residues 133-208 of Q9UKI8
UniProt P12004: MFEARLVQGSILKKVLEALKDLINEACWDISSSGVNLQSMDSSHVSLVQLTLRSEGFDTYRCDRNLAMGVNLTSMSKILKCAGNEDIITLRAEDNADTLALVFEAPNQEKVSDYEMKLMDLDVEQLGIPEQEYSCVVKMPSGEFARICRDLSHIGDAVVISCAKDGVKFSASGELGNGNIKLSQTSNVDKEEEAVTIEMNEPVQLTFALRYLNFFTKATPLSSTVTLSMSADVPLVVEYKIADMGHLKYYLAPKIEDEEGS

According to paper PMC11879137:

Experiments:
Assay in all cases: affinity purification with mass spectrometry; tandem affinity purification of SFB-tagged bait from soluble and chromatin fractions of transfected HEK293T (NETN buffer; streptavidin sepharose, biotin elution, S-protein agarose), in-gel digestion and tandem mass spectrometry
SFB-TLK1 133–208 (human) = SFB-TLK1 133–208 (human) (UniProt Q9UKI8)
SFB-TLK1 1–240 (human) = SFB-TLK1 1–240 (human) (UniProt Q9UKI8)
SFB-TLK1 D607A (human) = SFB-TLK1 D607A (human) (UniProt Q9UKI8)

Measured: binding

PCNA (from UniProt P12004 1-261)
binds: SFB-TLK1 133–208 (human) | SFB-TLK1 1–240 (human) | SFB-TLK1 D607A (human)

No constants are given. Whether binding was seen depends on the method and setting. Binding seen in cells or lysates may run through a third protein. Here binding means that the protein was enriched with, or labelled near, the bait; the list need not be complete.
